In patent EP4752153A1, “NOVEL PEPTIDE HAVING ACTIVITY OF IMPROVING SKIN CONDITION AND USES THEREOF” (Caregen Co., Ltd., priority 2023, dated 2026):
Part of at least one peptide drawing is inferred or uncertain, most often the ends. Residues, ends and D or L forms follow the SMILES beside them.

Assays:
collagen Iα1 [1] = experiment: mRNA expression of extracellular matrix genes (RT-PCR); type: cell-based, mouse; conditions: NIH3T3 cells; peptide 10 µM, 50 µM, 100 µM; 24 hours; FIG. 1
fibronectin [2] = experiment: as above; type: cell-based, mouse; conditions: NIH3T3 cells; peptide 10 µM, 50 µM, 100 µM; 24 hours; FIG. 1
elastin [3] = experiment: as above; type: cell-based, mouse; conditions: NIH3T3 cells; peptide 10 µM, 50 µM, 100 µM; 24 hours; FIG. 1
Pro-Collagen Iα1 = experiment: Pro-Collagen ELISA of culture supernatant; type: cell-based, mouse; conditions: NIH3T3 cells; peptide 10 µM, 50 µM, 100 µM; 72 hours; FIG. 2
Hyaluronic acid (HA) = experiment: HA (Hyaluronic acid) ELISA of culture supernatant; type: cell-based, human; conditions: HaCaT cells; peptide 10 µM, 50 µM, 100 µM; 72 hours; FIG. 2
SIRT1 (Sirtuin 1) = experiment: mRNA expression of skin barrier function-related genes (RT-PCR); type: cell-based, human; conditions: HaCaT cells; peptide 10 µM, 50 µM, 100 µM; 24 hours; FIG. 3
AQP3 (Aquaporin 3) = experiment: as above; type: cell-based, human; conditions: HaCaT cells; peptide 10 µM, 50 µM, 100 µM; 24 hours; FIG. 3
NIH3T3 cells = experiment: Inhibition of UV-induced reactive oxygen species (ROS) production (DCFH-DA, FACS); type: cell-based, mouse; conditions: UVA 6 J/cm^2, peptide 10 µM, 50 µM, 100 µM, 24 hours after irradiation, FIG. 4A
HaCaT cells = experiment: as above; type: cell-based, human; conditions: UVB 15 mJ/cm^2, peptide 10 µM, 50 µM, 100 µM, 24 hours after irradiation, FIG. 4B
collagen Iα1 [4] = experiment: Restoration of extracellular matrix gene expression reduced by UV radiation (RT-PCR); type: cell-based, mouse; conditions: NIH3T3 cells; UVA 8 J/cm^2; peptide 10 µM, 50 µM, 100 µM; 6 hours after irradiation; FIGS. 5A and 5B
fibronectin [5] = experiment: as above; type: cell-based, mouse; conditions: NIH3T3 cells; UVA 8 J/cm^2; peptide 10 µM, 50 µM, 100 µM; 6 hours after irradiation; FIGS. 5A and 5B
elastin [6] = experiment: as above; type: cell-based, mouse; conditions: NIH3T3 cells; UVA 8 J/cm^2; peptide 10 µM, 50 µM, 100 µM; 6 hours after irradiation; FIGS. 5A and 5B
SIRT1 = experiment: Restoration of skin barrier function-related gene expression reduced by UV radiation (RT-PCR); type: cell-based, human; conditions: HaCaT cells; UVB 20 mJ/cm^2; peptide 10 µM, 50 µM, 100 µM; 4 hours after irradiation; FIGS. 6A and 6B
AQP3 = experiment: as above; type: cell-based, human; conditions: HaCaT cells; UVB 20 mJ/cm^2; peptide 10 µM, 50 µM, 100 µM; 4 hours after irradiation; FIGS. 6A and 6B
[7] = test system: COL17A1 (Collagen XVIIα1); experiment: as above; type: cell-based, human; conditions: HaCaT cells; UVB 20 mJ/cm^2; peptide 10 µM, 50 µM, 100 µM; 4 hours after irradiation; FIG. 6C and FIG. 6D
ITGB1 (Integrin β 1) = experiment: as above; type: cell-based, human; conditions: HaCaT cells; UVB 20 mJ/cm^2; peptide 10 µM, 50 µM, 100 µM; 4 hours after irradiation; FIG. 6C and FIG. 6D
ITGB4 (Integrin β 4) = experiment: as above; type: cell-based, human; conditions: HaCaT cells; UVB 20 mJ/cm^2; peptide 10 µM, 50 µM, 100 µM; 4 hours after irradiation; FIG. 6C and FIG. 6D
ITGA6 (Integrin α 6) = experiment: as above; type: cell-based, human; conditions: HaCaT cells; UVB 20 mJ/cm^2; peptide 10 µM, 50 µM, 100 µM; 4 hours after irradiation; FIG. 6C and FIG. 6D
Plectin = experiment: as above; type: cell-based, human; conditions: HaCaT cells; UVB 20 mJ/cm^2; peptide 10 µM, 50 µM, 100 µM; 4 hours after irradiation; FIG. 6C and FIG. 6D
MMP-1 [8] = experiment: Inhibition of UV-induced MMP-1 expression (western blot), NIH3T3 cells; type: cell-based, mouse; conditions: UVA 6 J/cm^2, peptide 10 µM, 50 µM, 100 µM, 24 hours after irradiation, FIG. 7A
MMP-1 [9] = experiment: Inhibition of UV-induced MMP-1 expression (western blot), HaCaT cells; type: cell-based, human; conditions: UVB 15 mJ/cm^2, peptide 10 µM, 50 µM, 100 µM, 24 hours after irradiation, FIG. 7B
MMP-1 [10] = experiment: Inhibition of heat-induced MMP-1 expression (western blot), NIH3T3 cells; type: cell-based, mouse; conditions: 44°C water bath 30 minutes, peptide 10 µM, 50 µM, 100 µM, 8 hours after heat-shock, FIG. 8

## CC[C@H](C)[C@H](NC(=O)[C@@H]1CCCN1C(=O)[C@H](CCCCN)NC(=O)[C@H](CCCCN)NC(=O)[C@H](CCCNC(=N)N)NC(=O)[C@@H](NC(=O)[C@@H](NC(=O)[C@@H](N)CCC(=O)O)[C@@H](C)CC)C(C)C)C(=O)O [peptide of SEQ ID NO: 1, EIVRKKPI] (H-EIVRKKPI-OH)
Collagen Iα1 [1]
  mRNA expression level of collagen Iα1 gene: increased
Fibronectin [2]
  mRNA expression level of fibronectin gene: increased
Elastin [3]
  mRNA expression level of elastin gene: increased
Pro-Collagen Iα1
  secretion of Pro-Collagen Iα1: increased
Hyaluronic acid (HA)
  secretion of Hyaluronic acid (HA): increased
SIRT1 (Sirtuin 1)
  mRNA expression level of SIRT1 (Sirtuin 1) gene: increased
AQP3 (Aquaporin 3)
  mRNA expression level of AQP3 (Aquaporin 3) gene: increased
NIH3T3 cells
  intracellular ROS level increased by UV radiation: reduced
HaCaT cells
  intracellular ROS level increased by UV radiation: again reduced
Collagen Iα1 [4]
  mRNA expression level of collagen Iα1 gene reduced by UV radiation: increased again
Fibronectin [5]
  mRNA expression level of fibronectin gene reduced by UV radiation: increased again
Elastin [6]
  mRNA expression level of elastin gene reduced by UV radiation: increased again
SIRT1
  mRNA level of SIRT1 reduced by UV radiation: restored
AQP3
  mRNA level of AQP3 reduced by UV radiation: restored
[7]
  mRNA level of COL17A1 (Collagen XVIIα1) reduced by UV radiation: restored
ITGB1 (Integrin β 1)
  mRNA level of ITGB1 (Integrin β 1) reduced by UV radiation: restored
ITGB4 (Integrin β 4)
  mRNA level of ITGB4 (Integrin β 4) reduced by UV radiation: restored
ITGA6 (Integrin α 6)
  mRNA level of ITGA6 (Integrin α 6) reduced by UV radiation: restored
Plectin
  mRNA level of Plectin reduced by UV radiation: restored
MMP-1 [8]
  UV-radiation-induced increase in MMP-1 expression: inhibited
MMP-1 [9]
  UV-radiation-induced increase in MMP-1 expression: inhibited
MMP-1 [10]
  increase in MMP-1 expression induced by heat-shock: inhibited
